Experimental data as given in patent US20090156632A1, “DOSAGE REGIMEN FOR PRASUGREL” (priority 2005, published 2009).
The name of at least one read-out is uncertain.

Assay: Clinical trial comparing bioavailability of prasugrel HCl and base
Type: in vivo, human
Details: patients undergoing concomitant therapy with H1-antagonists such as ranitidine

CC(=O)Oc1cc2c(s1)CCN(C(C(=O)C1CC1)c1ccccc1F)C2.Cl (racemic) [prasugrel HCl, (±)-2-[2-acetyloxy-6,7-dihydrothieno[3,2-c]pyridin-5(4H)-yl]-1-cyclopropyl-2-(2-fluorophenyl)ethanone hydrochloride]
bioavailability compared to the base: statistically significant higher level of bioavailability
